The results in this text go back to PubChem BioAssay AID1487 (National Center for Advancing Translational Sciences (NCATS), 2009).

Molecules are shown by their SMILES. The list shows a part of the results. Shown are side measurements of this screen, not its main read-out; they come without a call. Most of these compounds were active or inconclusive in the main read-out, so they are no random draw. The note in brackets gives the kind of curve behind each potency; many fits are weak.

A short description of the assay: qHTS Assay for Modulators of Lamin A Splicing. The conditions noted are these: HeLa LMNA splicing GFP/RFP minigene ratio, 48 h. The method, boiled down:
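S3 HeLa stable clones carrying a lamin A-EGFP splicing minigene plus DsRed2 were seeded at 600 cells/well in Opti-MEM with 2% FBS, pin-dosed and incubated 48 h at 37°C. Acumen cytometry (488 nm) gave the GFP/RFP total-intensity ratio.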
For orientation: In qHTS, concentration-response curves come from the screen itself.

The mark [1] stands for this setting: measured here: GFP splicing reporter channel.
Where [2] appears, read: measured here: RFP viability control channel.

Turning to `O=c1[nH]c(O)c(C=NC2CCN(Cc3ccccc3)CC2)c(=O)[nH]1`, the AC50 under setting [1] is 15.8 µM [rising, partial curve, poor fit] and the AC50 under setting [2] is 22.4 µM [rising, single point].

In the case of `NCC1(c2ccc3c(c2)OCCO3)CCCC1`, the AC50 runs as follows: under setting [1], 39.8 µM [falling, partial curve, poor fit]; under setting [2], 10 µM [falling, partial curve, poor fit].

As to `CC(C)N1C(=O)CCC1C(=O)N1CCC2(CC1)OCCO2` (stereo unspecified), the AC50 under setting [1] was 0.398 µM [falling, single point].

For the compound `CC(=O)[C@@]1(O)CC[C@H]2[C@@H]3CCC4=CC(=O)CC[C@]4(C)[C@H]3CC[C@@]21C`, under setting [2], the AC50 is 25.1 µM [rising, single point].

Turning to `Cc1sc2c(c1C)C(c1ccc(C(C)(C)C)cc1)=NCC(=O)N2CC(=O)Nc1nccs1`, the AC50 was 20 µM [falling, partial curve] under setting [1] and 22.4 µM [falling, partial curve] under setting [2].

As for `O=C(Oc1ccc2ccccc2c1Cl)N1CCCC1`, the half-maximal activity concentration (AC50) under setting [2] was 7.08 µM [rising, partial curve].

Turning to `CC1(C)OC(c2ccccc2)=C/C(=C/C=C2C(=O)NC(=O)NC2=O)O1`, the AC50 under setting [1] was 3.98 µM [rising, single point].

`N#CC(C#N)=Cc1ccc(-c2ccccc2)o1`: under setting [2], the AC50 was 17.8 µM [rising, partial curve].

Turning to `CCOc1ccc(CC2(CCc3ccncc3)C(=O)NC(=O)NC2=O)cc1`, the AC50 under setting [2] is 0.794 µM [falling, full curve, poor fit].

As for `CC(NC(C)(C)C)C(=O)c1cccc(Cl)c1` (stereo unspecified), the AC50 under setting [1] is 3.16 µM [rising, partial curve, poor fit].

Turning to `O=C(C(=O)N1CC=C(c2ccccc2)CC1)c1c[nH]c2ccccc12`, the AC50 under setting [2] was 0.224 µM [rising, full curve, poor fit].

Turning to `O=C(COc1ccccc1Cl)Nc1ccc2nc(SCC(=O)N3CCCC3)sc2c1`, the AC50 under setting [2] is 35.5 µM [falling, single point].

Regarding `COc1c(C)cc(C(=O)C2CCCN(Cc3cccc(C)n3)C2)cc1C` (stereo unspecified), the AC50 under setting [1] is 1.58 µM [falling, full curve, poor fit] and the AC50 under setting [2] is 1.12 µM [falling, full curve].

As for `Cc1nccn1Cc1ccc(Cl)nc1`, the half-maximal activity concentration (AC50) is, setting by setting: under setting [1], 0.126 µM [falling, partial curve, poor fit]; under setting [2], 0.112 µM [falling, partial curve, poor fit].

Turning to `O=C(O)C(Cl)Cl`, the AC50 was 35.5 µM [falling, single point] under setting [1] and 0.0708 µM [falling, partial curve, poor fit] under setting [2].

For the compound `CCc1ccc(OCCCN=C(C)c2c(O)n(C)c(=O)n(C)c2=O)cc1`, the AC50 under setting [2] was 12.6 µM [rising, partial curve].

Take `O=C(Oc1nsnc1N1CCOCC1)N(c1ccccc1)c1ccccc1`: the AC50 under setting [1] was 11.2 µM [rising, partial curve] and the AC50 under setting [2] is 11.2 µM [rising, single point].

With `CC(C)(C)c1cc(C=C(C#N)C#N)cc(C(C)(C)C)c1O`, the AC50 was 1.12 µM [falling, full curve] under setting [1] and 1.12 µM [falling, full curve] under setting [2].

In the case of `CCn1nc(-c2ccccc2)nc2c(=O)n(C)c(=O)nc1-2`, the AC50 under setting [1] was 5.01 µM [falling, full curve, poor fit].

As to `Cc1ccc(NP(=O)(Oc2ccccc2F)Oc2ccccc2F)cc1C`, the concentration at half-maximal activity (AC50) runs as follows: under setting [1], 15.8 µM [falling, single point]; under setting [2], 22.4 µM [falling, single point].

As to `COc1ccc(C2NCc3ccc4c(c3-n3cccc32)OCO4)cc1O` (stereo unspecified), the AC50 under setting [2] was 2.24 µM [rising, partial curve].

For `CCCCn1c(=O)c(C=Nc2cc([N+](=O)[O-])ccc2OC)c(O)n(CCCCl)c1=O`, the AC50 under setting [2] was 0.794 µM [falling, full curve, poor fit].

Turning to `Cc1ccccc1CN1CCNCC1`, the AC50 under setting [1] was 3.55 µM [rising, partial curve].

Consider `Cc1ccc(-n2c(/C=C/c3ccccc3)nc3ccccc3c2=O)cc1C`, for which the half-maximal activity concentration (AC50) under setting [2] is 0.224 µM [rising, partial curve, poor fit].

Consider `C[N+]12CCC(CC1)C(=C(c1ccccc1)c1ccccc1)C2`, for which the AC50 under setting [1] is 20 µM [rising, partial curve, poor fit].

As to `COc1cccc(-n2c(O)c(C=Nc3c(C)n(C)n(-c4ccccc4)c3=O)c(=O)[nH]c2=O)c1`, the AC50 is, setting by setting: under setting [1], 0.0282 µM [falling, full curve, poor fit]; under setting [2], 0.0316 µM [falling, full curve, poor fit].

On to `CC[C@@H](CO)NC(=O)[C@@H]1C=C2c3cccc4[nH]cc(c34)C[C@H]2N(C)C1`, for which the AC50 runs as follows: under setting [1], 12.6 µM [rising, single point]; under setting [2], 12.6 µM [rising, single point].

On to `CN1/C(=C\C=Nc2ccccc2)C(C)(C)c2ccccc21`, for which the AC50 is, setting by setting: under setting [1], 8.91 µM [rising, partial curve]; under setting [2], 12.6 µM [rising, partial curve].

With `COc1ccc2oc3c(c2c1)NC(=O)CN=C3c1ccccc1`, the AC50 under setting [1] is 22.4 µM [falling, single point].

For the compound `COc1cc(C2c3cc4c(c(O)c3CC3COC(=O)C32)OCO4)cc(OC)c1OC` (stereo unspecified), the AC50 is 0.891 µM [falling, full curve] under setting [1] and 1.26 µM [falling, full curve] under setting [2].

As for `CCC1(C2=NCCN2)Cc2ccccc2O1` (stereo unspecified), the AC50 under setting [1] was 0.0708 µM [falling, full curve, poor fit].

Take `CCOC(=O)C1(CCc2ccccc2)CCN(C2CCSCC2)CC1`: the AC50 was 0.1 µM [falling, full curve, poor fit] under setting [1] and 0.0891 µM [falling, full curve, poor fit] under setting [2].

With `Cc1cccc(-n2c(/C=C/c3cccc4ccccc34)nc3ccccc3c2=O)c1`, the AC50 under setting [2] was 35.5 µM [rising, single point].

As to `CCOC(=O)c1ncn2c1[C@@H]1CCCN1C(=O)c1cc(OC)ccc1-2`, the AC50 under setting [1] was 8.91 µM [falling, partial curve, poor fit] and the AC50 under setting [2] is 0.00316 µM [falling, full curve, poor fit].

Consider `NC(N)=Nc1ccc2[nH]c3c(c2c1)C[C@@]1(O)[C@H]2Cc4ccc(O)c5c4[C@@]1(CCN2CC1CC1)[C@H]3O5`, for which the AC50 by setting is: under setting [1], 3.16 µM [rising, partial curve]; under setting [2], 20 µM [falling, single point].

With `Cc1ccc(-n2c(/C=C/c3cccc(C(F)(F)F)c3)nc3ccccc3c2=O)cc1`, the half-maximal activity concentration (AC50) under setting [1] was 0.0112 µM [falling, full curve, poor fit].

As for `CCC(C(=O)O)C1CCC(C)C(C(C)C(O)C(C)C(=O)C(CC)C2OC3(C=CC(O)[C@@]4(CC[C@](C)(C5CC[C@@](O)(CC)C(C)O5)O4)O3)C(C)CC2C)O1` (stereo partly specified), the AC50 under setting [1] is 0.0316 µM [rising, partial curve] and the AC50 under setting [2] was 0.112 µM [rising, partial curve].

Take `C[N+]12CCC(CC1)[C@@H](OC(=O)C(O)(c1ccccc1)c1ccccc1)C2`: under setting [2], the AC50 is 0.000355 µM [rising, full curve, poor fit].

`Cc1cc(=O)[nH]c(SCc2nc3ccccc3c(=O)n2-c2ccccc2C)n1`: the AC50 under setting [2] is 3.55 µM [rising, partial curve].

For the compound `CCCCCn1c(=O)c(C(=O)NCc2ccncc2)c(O)c2ccccc21`, the AC50 is, setting by setting: under setting [1], 8.91 µM [rising, partial curve, poor fit]; under setting [2], 11.2 µM [rising, partial curve].

With `Cc1nnc2n1-c1ccc(Cl)cc1C(c1ccccc1)=NC2`, the half-maximal activity concentration (AC50) under setting [2] was 0.0126 µM [rising, full curve, poor fit].

With `CCn1cc(C(=O)NCc2ccccc2)c2ccccc21`, under setting [2], the AC50 is 0.0141 µM [falling, full curve, poor fit].

As to `C[C@H]1O[C@@H](O[C@H]2[C@@H](O)C[C@H](O[C@H]3[C@@H](O)C[C@H](O[C@H]4CC[C@@]5(C)[C@H](CC[C@@H]6[C@@H]5CC[C@]5(C)[C@@H](C7=CC(=O)OC7)CC[C@]65O)C4)O[C@@H]3C)O[C@@H]2C)C[C@H](O)[C@@H]1O`, the AC50 is, setting by setting: under setting [1], 1.12 µM [rising, full curve]; under setting [2], 1.12 µM [rising, full curve].

For `CC(C)(C)c1ccc(O)cc1`, under setting [2], the AC50 is 0.00316 µM [rising, full curve, poor fit].

In the case of `O=Cc1c(C(=O)O)n(Cc2ccc(Cl)cc2)c2ccccc12`, the AC50 by setting is: under setting [1], 28.2 µM [falling, partial curve]; under setting [2], 35.5 µM [falling, single point].

On to `CCCCN1CCC(O)(c2ccccc2)C(C(=O)c2ccccc2)C1` (stereo unspecified), for which, under setting [2], the AC50 was 15.8 µM [rising, single point].

For `COc1ccc2c3c1O[C@H]1C[C@@H](O)C=C[C@@]31CCN(C)C2`, the AC50 under setting [1] is 3.16 µM [falling, partial curve].

As to `CCCCOc1nc2ccccc2c(=O)n1-c1ccccc1`, the AC50 was 10 µM [rising, partial curve, poor fit] under setting [1] and 11.2 µM [rising, partial curve] under setting [2].

With `CN(C)c1ccc(/C=C/[N+](=O)[O-])cc1`, the AC50 under setting [2] was 35.5 µM [rising, single point].

`CC(=O)Nc1ccc(S(=O)(=O)N(C)CCOCc2ccccc2)cc1`: the AC50 under setting [2] is 12.6 µM [rising, single point].

On to `Cc1ccnc(-n2c(-c3ccco3)nc3ccccc3c2=O)c1`, for which the AC50 under setting [2] is 0.0224 µM [rising, full curve, poor fit].

`CCOc1ccc2nc(N3CCC(C(=O)N4CCC5(CC4)OCCO5)CC3)sc2c1`: the AC50 was 20 µM [rising, single point] under setting [1] and 15.8 µM [rising, partial curve] under setting [2].

Take `CCn1c(O)c(C(=O)CC2NCCc3ccccc32)c(=O)n(CC)c1=S` (stereo unspecified): the half-maximal activity concentration (AC50) reads like this: under setting [1], 6.31 µM [rising, partial curve]; under setting [2], 6.31 µM [rising, partial curve].

One may read the AC50 as the concentration giving half of the maximal activity seen.
